{"sequences": {"note": "Amino acid sequences for entries named in this document (tags omitted). A change or cut given only in a name is not applied to a line headed by its entry.", "UniProt Q9NSI6, whole entry": "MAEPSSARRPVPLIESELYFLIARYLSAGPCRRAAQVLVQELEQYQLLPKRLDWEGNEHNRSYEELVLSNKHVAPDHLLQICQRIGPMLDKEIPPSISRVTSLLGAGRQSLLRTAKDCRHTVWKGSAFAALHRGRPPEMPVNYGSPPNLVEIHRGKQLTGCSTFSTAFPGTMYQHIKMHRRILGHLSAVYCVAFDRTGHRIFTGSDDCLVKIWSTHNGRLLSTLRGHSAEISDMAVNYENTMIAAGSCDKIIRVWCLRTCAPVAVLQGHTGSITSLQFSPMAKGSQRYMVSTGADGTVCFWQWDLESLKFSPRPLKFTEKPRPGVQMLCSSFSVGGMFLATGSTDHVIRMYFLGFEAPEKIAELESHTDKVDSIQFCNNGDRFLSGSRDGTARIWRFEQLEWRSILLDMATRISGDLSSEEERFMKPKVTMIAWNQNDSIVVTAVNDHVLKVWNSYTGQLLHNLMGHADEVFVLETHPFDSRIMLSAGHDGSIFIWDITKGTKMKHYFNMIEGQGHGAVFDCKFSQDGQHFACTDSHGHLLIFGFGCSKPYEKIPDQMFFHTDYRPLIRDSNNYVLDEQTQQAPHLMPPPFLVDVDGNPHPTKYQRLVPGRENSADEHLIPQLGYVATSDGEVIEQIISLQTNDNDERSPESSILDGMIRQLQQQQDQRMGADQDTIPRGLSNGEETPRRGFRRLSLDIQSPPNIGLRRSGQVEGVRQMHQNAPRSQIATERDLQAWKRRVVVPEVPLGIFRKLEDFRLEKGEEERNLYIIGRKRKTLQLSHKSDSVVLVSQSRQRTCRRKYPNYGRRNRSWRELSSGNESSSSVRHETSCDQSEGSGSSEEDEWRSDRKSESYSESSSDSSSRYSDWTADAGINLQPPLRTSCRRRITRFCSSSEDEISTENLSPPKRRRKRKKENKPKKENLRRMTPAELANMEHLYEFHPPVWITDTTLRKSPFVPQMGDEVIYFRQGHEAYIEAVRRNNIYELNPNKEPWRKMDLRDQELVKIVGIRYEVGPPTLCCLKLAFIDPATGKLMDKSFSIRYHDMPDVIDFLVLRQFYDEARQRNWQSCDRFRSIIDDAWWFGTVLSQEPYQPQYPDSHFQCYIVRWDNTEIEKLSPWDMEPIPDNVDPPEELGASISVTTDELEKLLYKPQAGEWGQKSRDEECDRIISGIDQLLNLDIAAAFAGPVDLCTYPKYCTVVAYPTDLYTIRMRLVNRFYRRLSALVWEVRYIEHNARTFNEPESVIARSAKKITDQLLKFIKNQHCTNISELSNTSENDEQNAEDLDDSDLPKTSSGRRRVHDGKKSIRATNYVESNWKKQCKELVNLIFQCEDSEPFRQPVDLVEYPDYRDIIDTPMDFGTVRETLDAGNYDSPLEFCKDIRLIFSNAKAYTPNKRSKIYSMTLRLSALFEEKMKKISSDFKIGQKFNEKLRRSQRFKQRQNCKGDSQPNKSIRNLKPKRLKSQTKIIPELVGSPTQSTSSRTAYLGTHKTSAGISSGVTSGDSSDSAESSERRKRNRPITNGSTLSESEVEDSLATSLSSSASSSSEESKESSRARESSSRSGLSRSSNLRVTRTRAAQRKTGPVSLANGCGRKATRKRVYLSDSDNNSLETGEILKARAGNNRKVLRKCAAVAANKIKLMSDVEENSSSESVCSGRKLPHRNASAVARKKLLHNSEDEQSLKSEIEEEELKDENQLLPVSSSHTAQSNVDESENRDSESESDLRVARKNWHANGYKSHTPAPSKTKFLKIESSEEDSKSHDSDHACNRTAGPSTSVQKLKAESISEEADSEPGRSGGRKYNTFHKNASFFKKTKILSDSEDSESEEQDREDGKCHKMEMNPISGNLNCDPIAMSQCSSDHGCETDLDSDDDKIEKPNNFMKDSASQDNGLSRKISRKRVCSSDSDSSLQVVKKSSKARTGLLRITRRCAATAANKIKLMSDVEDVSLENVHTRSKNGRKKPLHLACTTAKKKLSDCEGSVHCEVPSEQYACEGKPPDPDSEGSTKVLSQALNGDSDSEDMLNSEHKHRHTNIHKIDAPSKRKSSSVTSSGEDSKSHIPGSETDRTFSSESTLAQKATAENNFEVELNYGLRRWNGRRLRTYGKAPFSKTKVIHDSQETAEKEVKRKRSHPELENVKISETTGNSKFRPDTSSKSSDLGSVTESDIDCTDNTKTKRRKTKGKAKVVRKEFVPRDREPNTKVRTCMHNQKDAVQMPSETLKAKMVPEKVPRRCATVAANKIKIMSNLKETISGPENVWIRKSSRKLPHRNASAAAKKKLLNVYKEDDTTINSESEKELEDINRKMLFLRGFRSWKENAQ", "UniProt Q9NQ89": "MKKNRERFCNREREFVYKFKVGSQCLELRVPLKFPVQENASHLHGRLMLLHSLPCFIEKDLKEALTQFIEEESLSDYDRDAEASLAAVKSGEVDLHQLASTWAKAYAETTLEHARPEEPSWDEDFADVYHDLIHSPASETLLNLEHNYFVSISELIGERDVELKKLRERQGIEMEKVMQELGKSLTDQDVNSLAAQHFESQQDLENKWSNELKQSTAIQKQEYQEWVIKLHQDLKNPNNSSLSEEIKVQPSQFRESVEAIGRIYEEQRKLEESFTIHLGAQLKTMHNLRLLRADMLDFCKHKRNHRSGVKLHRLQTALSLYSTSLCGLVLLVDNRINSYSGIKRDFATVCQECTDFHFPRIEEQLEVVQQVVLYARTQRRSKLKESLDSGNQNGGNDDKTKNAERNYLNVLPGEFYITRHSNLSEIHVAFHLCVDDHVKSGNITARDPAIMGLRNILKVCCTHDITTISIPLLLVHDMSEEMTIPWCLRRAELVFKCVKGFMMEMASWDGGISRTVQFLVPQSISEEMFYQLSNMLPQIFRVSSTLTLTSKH", "UniProt Q9NPJ3": "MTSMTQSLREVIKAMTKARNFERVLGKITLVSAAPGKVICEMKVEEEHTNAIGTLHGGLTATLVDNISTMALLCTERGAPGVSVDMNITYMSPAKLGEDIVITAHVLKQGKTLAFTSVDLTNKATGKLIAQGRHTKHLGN", "UniProt Q9NQG5": "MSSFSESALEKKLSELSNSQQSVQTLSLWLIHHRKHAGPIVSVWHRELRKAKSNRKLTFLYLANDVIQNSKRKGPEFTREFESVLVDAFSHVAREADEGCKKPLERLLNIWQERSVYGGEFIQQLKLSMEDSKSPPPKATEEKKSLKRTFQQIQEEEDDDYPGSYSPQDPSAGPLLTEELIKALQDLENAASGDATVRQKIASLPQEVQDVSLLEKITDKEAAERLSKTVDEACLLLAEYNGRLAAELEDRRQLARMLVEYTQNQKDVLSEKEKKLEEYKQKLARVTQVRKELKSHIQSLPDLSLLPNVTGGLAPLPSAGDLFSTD", "UniProt Q9NRD1": "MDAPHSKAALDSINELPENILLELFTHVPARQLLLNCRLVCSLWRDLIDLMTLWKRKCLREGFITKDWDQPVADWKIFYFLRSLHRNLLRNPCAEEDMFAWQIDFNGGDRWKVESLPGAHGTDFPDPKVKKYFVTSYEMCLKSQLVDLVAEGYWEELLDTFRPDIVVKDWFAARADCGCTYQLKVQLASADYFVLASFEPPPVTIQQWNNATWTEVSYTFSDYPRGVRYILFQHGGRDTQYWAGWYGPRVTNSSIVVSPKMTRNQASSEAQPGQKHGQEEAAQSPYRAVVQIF", "UniProt Q9NPA8": "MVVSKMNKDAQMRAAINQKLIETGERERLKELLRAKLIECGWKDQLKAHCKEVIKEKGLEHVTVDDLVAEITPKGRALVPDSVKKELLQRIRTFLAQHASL", "UniProt Q9NQR1": "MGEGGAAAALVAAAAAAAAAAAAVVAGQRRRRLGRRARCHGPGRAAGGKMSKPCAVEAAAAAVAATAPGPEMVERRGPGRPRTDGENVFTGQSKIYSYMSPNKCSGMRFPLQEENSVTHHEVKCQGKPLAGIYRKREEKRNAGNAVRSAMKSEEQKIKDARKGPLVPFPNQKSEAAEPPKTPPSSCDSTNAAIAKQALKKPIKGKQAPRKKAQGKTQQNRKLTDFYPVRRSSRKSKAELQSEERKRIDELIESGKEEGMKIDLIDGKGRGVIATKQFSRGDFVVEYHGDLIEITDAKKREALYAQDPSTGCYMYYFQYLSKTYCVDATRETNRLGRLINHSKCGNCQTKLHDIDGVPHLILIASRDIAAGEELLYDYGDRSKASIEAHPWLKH", "UniProt Q9NQC8": "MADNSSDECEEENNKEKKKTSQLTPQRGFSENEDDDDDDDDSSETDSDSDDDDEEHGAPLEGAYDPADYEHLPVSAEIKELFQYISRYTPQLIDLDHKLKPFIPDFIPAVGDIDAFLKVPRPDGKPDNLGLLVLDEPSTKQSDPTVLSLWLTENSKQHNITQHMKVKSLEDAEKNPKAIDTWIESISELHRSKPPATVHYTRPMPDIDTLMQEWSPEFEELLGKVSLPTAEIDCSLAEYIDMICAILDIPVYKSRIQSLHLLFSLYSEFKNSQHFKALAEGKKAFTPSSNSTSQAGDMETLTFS", "UniProt Q9NRX1": "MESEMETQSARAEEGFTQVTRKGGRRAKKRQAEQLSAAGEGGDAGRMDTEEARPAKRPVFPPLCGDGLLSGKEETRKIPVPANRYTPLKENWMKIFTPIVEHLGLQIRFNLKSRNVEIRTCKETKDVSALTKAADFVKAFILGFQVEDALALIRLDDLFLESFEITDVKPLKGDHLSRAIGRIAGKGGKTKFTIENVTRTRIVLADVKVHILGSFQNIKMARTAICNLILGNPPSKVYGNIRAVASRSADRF", "UniProt Q9NWD9": "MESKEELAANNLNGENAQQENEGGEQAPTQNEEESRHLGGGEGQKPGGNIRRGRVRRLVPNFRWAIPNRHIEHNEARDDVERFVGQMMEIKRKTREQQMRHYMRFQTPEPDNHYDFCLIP", "UniProt Q9NWB6": "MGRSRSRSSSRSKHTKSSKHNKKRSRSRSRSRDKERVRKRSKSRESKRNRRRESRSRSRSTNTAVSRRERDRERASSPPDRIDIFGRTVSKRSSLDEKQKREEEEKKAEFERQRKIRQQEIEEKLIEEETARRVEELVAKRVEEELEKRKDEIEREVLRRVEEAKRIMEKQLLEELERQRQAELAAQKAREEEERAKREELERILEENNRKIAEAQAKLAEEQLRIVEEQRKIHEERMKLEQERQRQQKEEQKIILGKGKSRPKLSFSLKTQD", "UniProt Q9NV88, whole entry": "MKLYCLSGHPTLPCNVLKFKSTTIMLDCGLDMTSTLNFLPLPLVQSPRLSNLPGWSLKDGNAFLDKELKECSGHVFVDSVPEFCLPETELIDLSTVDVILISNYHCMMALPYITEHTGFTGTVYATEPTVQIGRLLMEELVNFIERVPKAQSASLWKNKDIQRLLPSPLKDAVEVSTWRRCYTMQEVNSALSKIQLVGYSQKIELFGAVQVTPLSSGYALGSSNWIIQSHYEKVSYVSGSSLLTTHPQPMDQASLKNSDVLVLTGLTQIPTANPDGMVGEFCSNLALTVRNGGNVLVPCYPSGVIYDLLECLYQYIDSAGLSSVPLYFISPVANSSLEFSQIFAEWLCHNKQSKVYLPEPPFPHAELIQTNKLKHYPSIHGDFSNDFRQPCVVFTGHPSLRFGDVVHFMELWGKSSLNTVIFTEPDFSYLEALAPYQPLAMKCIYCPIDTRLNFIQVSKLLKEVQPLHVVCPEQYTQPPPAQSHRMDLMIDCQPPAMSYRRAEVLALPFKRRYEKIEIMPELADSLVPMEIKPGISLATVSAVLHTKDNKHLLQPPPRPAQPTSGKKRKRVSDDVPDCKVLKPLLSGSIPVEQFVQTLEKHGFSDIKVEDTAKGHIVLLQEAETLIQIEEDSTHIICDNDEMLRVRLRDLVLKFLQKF", "UniProt Q9NSC5": "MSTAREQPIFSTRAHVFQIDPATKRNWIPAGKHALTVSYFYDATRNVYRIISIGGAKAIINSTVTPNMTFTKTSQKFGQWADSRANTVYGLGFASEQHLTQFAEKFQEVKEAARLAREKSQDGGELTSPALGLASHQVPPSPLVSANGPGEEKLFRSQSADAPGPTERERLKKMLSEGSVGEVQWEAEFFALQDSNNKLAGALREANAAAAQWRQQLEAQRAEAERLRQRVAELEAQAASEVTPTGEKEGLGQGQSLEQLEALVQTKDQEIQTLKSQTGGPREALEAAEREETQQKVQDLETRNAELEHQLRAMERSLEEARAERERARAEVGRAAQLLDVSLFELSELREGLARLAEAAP", "UniProt Q9NWY4": "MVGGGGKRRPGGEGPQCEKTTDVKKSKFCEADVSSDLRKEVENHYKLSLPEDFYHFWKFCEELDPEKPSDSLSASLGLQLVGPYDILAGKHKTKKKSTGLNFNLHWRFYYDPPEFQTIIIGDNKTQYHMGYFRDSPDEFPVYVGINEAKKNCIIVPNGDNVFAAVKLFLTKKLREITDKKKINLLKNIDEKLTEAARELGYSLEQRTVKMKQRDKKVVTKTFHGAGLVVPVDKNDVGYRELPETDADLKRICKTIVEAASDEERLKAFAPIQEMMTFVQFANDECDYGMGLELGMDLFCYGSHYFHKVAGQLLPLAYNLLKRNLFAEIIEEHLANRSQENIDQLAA"}, "source": "the supplement of paper PMC12819154", "about": "“High-throughput peptide-centric local stability assay extends protein–ligand identification to membrane proteins, tissues and bacteria” (Nature Structural & Molecular Biology, 2025)", "note": "Some of the results follow. Most values lie at the level of the controls, where differences are scatter."}
{"compound": "Cc1nc(Nc2ncc(C(=O)Nc3c(C)cccc3Cl)s2)cc(N2CCN(CCO)CC2)n1 [dasatinib]", "experiment": "log2 fold change of tryptic peptide abundance, ligand vs vehicle (limited proteolysis) (log2 ratio); higher = more trypsin-susceptible (destabilized)", "settings": "ligand concentration: 5 uM; sample: K562 cleared lysate"}
{"target": "STAU2 (peptide sequence: HKVISGTTLGYLSPK, peptide start residue: 428) (UniProt Q9NUL3)", "log2 fold change": -0.321}
{"target": "EXOC1 (peptide sequence: KESAVKQETESLHGSSGK, peptide start residue: 449) (UniProt Q9NV70)", "log2 fold change": -0.867}
{"target": "BRWD1 (peptide sequence: EPWRKMDLR, peptide start residue: 992) (UniProt Q9NSI6)", "log2 fold change": -0.483}
{"target": "C12orf4 (peptide sequence: ESLDSGNQNGGNDDKTK, peptide start residue: 385) (UniProt Q9NQ89)", "log2 fold change": -0.114}
{"target": "TBCCD1 (peptide sequence: SQSPDLTEK, peptide start residue: 150) (UniProt Q9NVR7)", "log2 fold change": -0.374}
{"target": "UniProt Q9NPJ3 (peptide sequence: ITLVSAAPGK, peptide start residue: 28)", "log2 fold change": -0.128}
{"target": "RPRD1B (peptide sequence: LSELSNSQQSVQTLSLWLIHHR, peptide start residue: 13) (UniProt Q9NQG5)", "log2 fold change": 0.522}
{"target": "POT1 (peptide sequence: FNSVIPVR, peptide start residue: 470) (UniProt Q9NUX5)", "log2 fold change": -0.156}
{"target": "VTA1 (peptide sequence: IDSKTPECR, peptide start residue: 49) (UniProt Q9NP79)", "log2 fold change": -0.533}
{"target": "UniProt Q9HCM7 (peptide sequence: TTPLGGLGPGEAR, peptide start residue: 1019)", "log2 fold change": -0.217}
{"target": "FBXO6 (peptide sequence: HGQEEAAQSPYR, peptide start residue: 276) (UniProt Q9NRD1)", "log2 fold change": 0.112}
{"target": "MRPS30 (peptide sequence: QYENHIFVGSK, peptide start residue: 277) (UniProt Q9NP92)", "log2 fold change": -0.834}
{"target": "UniProt Q9NVM9 (peptide sequence: AHINNSEK, peptide start residue: 542)", "log2 fold change": -0.186}
{"target": "TBC1D13 (peptide sequence: ILLNYLPLER, peptide start residue: 47) (UniProt Q9NVG8)", "log2 fold change": -0.546}
{"target": "UniProt Q9NPA8 (peptide sequence: MNKDAQMR, peptide start residue: 6)", "log2 fold change": 0.209}
{"target": "KMT5A (peptide sequence: TDGENVFTGQSK, peptide start residue: 83) (UniProt Q9NQR1)", "log2 fold change": 0.205}
{"target": "IFT46 (peptide sequence: TSQLTPQR, peptide start residue: 20) (UniProt Q9NQC8)", "log2 fold change": 0.219}
{"target": "PNO1 (peptide sequence: KIPVPANR, peptide start residue: 77) (UniProt Q9NRX1)", "log2 fold change": -0.0903}
{"target": "BEX4 (peptide sequence: FVGQMMEIK, peptide start residue: 83) (UniProt Q9NWD9)", "log2 fold change": -0.157}
{"target": "MED17 (peptide sequence: DFNSELLR, peptide start residue: 182) (UniProt Q9NVC6)", "log2 fold change": -0.428}
{"target": "ARGLU1 (peptide sequence: QLLEELER, peptide start residue: 171) (UniProt Q9NWB6)", "log2 fold change": -0.166}
{"target": "SNX15 (peptide sequence: DGVHVLLQGVPSDPLPARQEGVK, peptide start residue: 297) (UniProt Q9NRS6)", "log2 fold change": -0.267}
{"target": "INTS9 (peptide sequence: RAEVLALPFKR, peptide start residue: 501) (UniProt Q9NV88)", "log2 fold change": -0.144}
{"target": "HOMER3 (peptide sequence: SQSADAPGPTER, peptide start residue: 157) (UniProt Q9NSC5)", "log2 fold change": -0.239}
{"target": "EXOSC3 (peptide sequence: RYVPVKGDHVIGIVTAK, peptide start residue: 108) (UniProt Q9NQT5)", "log2 fold change": -0.448}
{"target": "MDN1 (peptide sequence: DLLNWCNR, peptide start residue: 549) (UniProt Q9NU22)", "log2 fold change": 0.443}
{"target": "UniProt Q9NQ31 (peptide sequence: YYSSVPEEGGATHVYR, peptide start residue: 103)", "log2 fold change": -0.0456}
{"target": "UniProt Q9NWY4 (peptide sequence: RRPGGEGPQCEK, peptide start residue: 8)", "log2 fold change": 0.236}
{"target": "MRPL40 (peptide sequence: LHAEAIKRDPNLFPFEK, peptide start residue: 157) (UniProt Q9NQ50)", "log2 fold change": -0.28}
